The assay concerns the target E3 ubiquitin ligase mouse double minute 2 (MDM2) (human (endogenous in MCF-7 and MDA-MB-231)) (UniProt Q00987). Description: co-IP; anti-GSG2 or anti-MDM2 antibody on Protein A/G beads, incubated with cell lysate, washed 3 times, western blot; forward and reverse; also MCF-7 and MDA-MB-231 cells treated with or without CHR-6494.

Amino acid sequences for entries named in this document (tags omitted).
UniProt Q00987: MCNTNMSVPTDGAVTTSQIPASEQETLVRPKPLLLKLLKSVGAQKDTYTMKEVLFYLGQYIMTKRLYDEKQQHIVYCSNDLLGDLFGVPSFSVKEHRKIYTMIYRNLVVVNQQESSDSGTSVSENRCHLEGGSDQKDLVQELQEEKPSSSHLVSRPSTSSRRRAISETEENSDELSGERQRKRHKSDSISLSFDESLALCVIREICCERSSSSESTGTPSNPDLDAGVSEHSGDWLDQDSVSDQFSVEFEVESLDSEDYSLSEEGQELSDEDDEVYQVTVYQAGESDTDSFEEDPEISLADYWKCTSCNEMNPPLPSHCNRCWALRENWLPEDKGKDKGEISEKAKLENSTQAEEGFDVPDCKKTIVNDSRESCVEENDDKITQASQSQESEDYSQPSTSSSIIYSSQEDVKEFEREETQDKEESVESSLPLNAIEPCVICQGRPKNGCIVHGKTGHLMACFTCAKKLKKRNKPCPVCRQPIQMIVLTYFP

These are yes or no findings as the source states them, for the method shown. Binding seen in cells or lysates may run through a third protein. Some results given as binding are weak or reduced against the parent protein; the word gives no strength.

The record followed here is PMC10398932.

B1: Germ cell-specific gene 2 (GSG2) (protein, UniProt Q8TF76 1-798)
chain: MAASLPGPGSRLFRTYGAADGRRQRRPGREAAQWFPPQDRRRFFNSSGSSDASIGDPSQSDDPDDPDDPDFPGSPVRRRRRRPGGRVPKDRPSLTVTPKRWKLRARPSLTVTPRRLGLRARPPQKCSTPCGPLRLPPFPSRDSGRLSPDLSVCGQPRDGDELGISASLFSSLASPCPGSPTPRDSVISIGTSACLVAASAVPSGLHLPEVSLDRASLPCSQEEATGGAKDTRMVHQTRASLRSVLFGLMNSGTPEDSEFRADGKNMRESCCKRKLVVGNGPEGPGLSSTGKRRATGQDSCQERGLQEAVRREHQEASVPKGRIVPRGIDRLERTRSSRKSKHQEATETSLLHSHRFKKGQKLGKDSFPTQDLTPLQNVCFWTKTRASFSFHKKKIVTDVSEVCSIYTTATSLSGSLLSECSNRPVMNRTSGAPSSWHSSSMYLLSPLNTLSISNKKASDAEKVYGECSQKGPVPFSHCLPTEKLQRCEKIGEGVFGEVFQTIADHTPVAIKIIAIEGPDLVNGSHQKTFEEILPEIIISKELSLLSGEVCNRTEGFIGLNSVHCVQGSYPPLLLKAWDHYNSTKGSANDRPDFFKDDQLFIVLEFEFGGIDLEQMRTKLSSLATAKSILHQLTASLAVAEASLRFEHRDLHWGNVLLKKTSLKKLHYTLNGKSSTIPSCGLQVSIIDYTLSRLERDGIVVFCDVSMDEDLFTGDGDYQFDIYRLMKKENNNRWGEYHPYSNVLWLHYLTDKMLKQMTFKTKCNTPAMKQIKRKIQEFHRTMLNFSSATDLLCQHSLFK
For the molecule B1, the binding entry is recorded as “binds”.
